Data reported in patent US20120283096A1, “AGENT FOR IMPROVING PLANT GROWTH, SEEDS, AND METHOD FOR IMPROVING PLANT GROWTH” (Incorporated Administrative Agency National Agricu lture …, priority 2010, published 2012).
Some results were stated once for a whole list of compounds, not compound by compound.

System: paddy rice
Assay: Seedling establishment of coated paddy seeds in submerged soil containers (Examples 4-1 to 4-4b, FIGS. 11, 14-19c)
Format: in vivo
Conditions: dry seeds coated with mixture with reduced iron (half the weight of dry seeds), 30° C., FIG. 19b
Description: The germinated paddy seeds were soaked for one minute in a tenfold diluted solution of a commercially available laundry starch (manufactured by Rocket Soap Co., Ltd.; My Laundry Starch) containing approximately a little less than 10% by weight of polyvinyl alcohol, centrifuged at 1000 rpm for removal of the extra solution, and, immediately after that, lightly covered with different amounts of ammonium molybdophosphate, whereby seeds with different amounts of ammonium molybdophosphate were prepared.
(§1) It should also be noted that in each of FIGS. 14 through 15b, the horizontal axis represents the number of moles (mmol) of molybdenum or tungsten that adhered per gram of dry seed. In each of FIGS. 14 through 15b, the dots correspond to the numbers of moles of 0, 0.02, 0.05, 0.1, 0.2, 0.5, 1, and 2 mmol, starting from the left.
as §1, with “should” for “should also”, “16” for “14”, “18,” for “15b,”, “molybdenum” for “molybdenum or tungsten”
It should be noted that in FIG. 19a, the horizontal axis represents the number of moles (mmol) of molybdenum that adhered per gram of dry seed. […]

| Substance | molybdenum amount leading to improvements in seedling establishment |
| --- | --- |
| Potassium phosphomolybdate [Potassium molybdophosphate] | ≥ 0.1 mmol/g |
| Triammonium 12-moblydo(VI)phosphate trihydrate [Ammonium molybdophosphate] | ≥ 0.1 mmol/g |
